From publication PMC7819943, “Rice protein-binding microarrays: a tool to detect cis-acting elements near promoter regions in rice”
Some of the results follow.

molecular target: T1, OsSMF1 (Oryza sativa, UniProt Q6ZLB0 1-436); experiment: protein-binding microarray (RPBM); PBS, 2% BSA, 51.3 ng/ul salmon testes DNA, 50 uM zinc acetate, 200 nM TF, 25 C, 1 h; high values mean tight binding; details: protein: recombinant; tags: N-terminal polyhistidine and DsRed monomer fusion (pET32a); chain copies: 2; label: CyDye5-dUTP incorporated in the synthesized complementary strand; 3' TTTTT single-stranded linker to array surface; dsDNA, one strand shown
T1 sequence: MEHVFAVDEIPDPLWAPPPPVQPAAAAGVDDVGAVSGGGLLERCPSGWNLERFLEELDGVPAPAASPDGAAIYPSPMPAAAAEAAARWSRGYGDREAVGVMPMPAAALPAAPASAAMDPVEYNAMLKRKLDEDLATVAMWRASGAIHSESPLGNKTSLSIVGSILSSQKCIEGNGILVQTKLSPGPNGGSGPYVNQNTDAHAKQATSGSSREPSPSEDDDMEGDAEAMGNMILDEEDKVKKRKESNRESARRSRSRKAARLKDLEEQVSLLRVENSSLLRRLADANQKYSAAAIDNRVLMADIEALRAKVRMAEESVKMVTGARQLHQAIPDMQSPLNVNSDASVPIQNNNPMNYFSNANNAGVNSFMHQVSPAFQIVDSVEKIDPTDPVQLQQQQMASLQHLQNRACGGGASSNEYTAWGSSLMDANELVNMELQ
In short: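 The binding signal for each feature is its fluorescence intensity in arbitrary units. An Axon 4000B scanner was used to read a custom Agilent array that had been made double-stranded with Cy5-dUTP primer extension, blocked with 2% BSA, incubated at 25 °C for 1 h with 200 nM protein in PBS, 2% BSA, salmon testes DNA and 50 µM zinc acetate, and washed. The protein was an N-terminal polyhistidine–DsRed transcription factor fusion from E. coli BL21-CodonPlus, purified on Ni–NTA.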

**Q.** For “AAGAAATCCAGTGCCTCCCCTCCACCACATGTCATGCTATCGGAGTCACCTAGTGCAG”, which binding signal is on record?
**A.** The binding signal was 3500 fluorescence intensity (a.u.).

**Q.** How did the binding signal turn out when “CTTGTTGTGCAAGGCCACGTGCCTTTTCTTTTCTATTAGTCGGAGTCACCTAGTGCAG” was run?
**A.** The binding signal was 4080 fluorescence intensity (a.u.).

**Q.** With “TTCGCTAGGCGCATACGTCATCACCCCTCCCTCCCGACTTCGGAGTCACCTAGTGCAG” as the sequence, how does the binding signal read?
**A.** Its binding signal is 22500 fluorescence intensity (a.u.).

**Q.** How did the binding signal turn out when “ATGTGGGTCCCACGCGCCACGTAGGCCAATACTGGGTTAACGGAGTCACCTAGTGCAG” was run?
**A.** The binding signal was 7600 fluorescence intensity (a.u.).

**Q.** “AAATCAAGCACTAATCCACTCTGACACGTCATCATGTATCCGGAGTCACCTAGTGCAG” was tested. Which binding signal did it give?
**A.** The binding signal was 22400 fluorescence intensity (a.u.).

**Q.** “AGATTGTACAACCCACGTACAATCATACCGTATCCACCAACGGAGTCACCTAGTGCAG” was tested. Which binding signal did it give?
**A.** The binding signal was 3320 fluorescence intensity (a.u.).

**Q.** Which binding signal does the source give for “CCGGGAAATTCTTGTGTTGTTGTGTTGGTCTTGAGCAATTCGGAGTCACCTAGTGCAG” here?
**A.** Its binding signal is 3630 fluorescence intensity (a.u.).

**Q.** For “AAAGCCGCACACGTGTTTCCCGCGACCGCGCCACGTCACCCGGAGTCACCTAGTGCAG”, which binding signal is on record?
**A.** The binding signal was 46700 fluorescence intensity (a.u.).

**Q.** Which binding signal does the source give for “ATTCGCAGAGCATTTTCCATCCACGTTGGTGCGCCAACTCCGGAGTCACCTAGTGCAG” here?
**A.** The binding signal was 4320 fluorescence intensity (a.u.).

**Q.** With “CTAGGTTTTGCATCGAGTCATGGAGATAACACAACTAGTGCGGAGTCACCTAGTGCAG” as the sequence, how does the binding signal read?
**A.** The binding signal was 3900 fluorescence intensity (a.u.).

**Q.** With “GGAACATCCCCTCGATCTTGCACGAGTTTACCATTCGCCACGGAGTCACCTAGTGCAG” as the sequence, how does the binding signal read?
**A.** The binding signal was 3390 fluorescence intensity (a.u.).

**Q.** With “GCGTGACGCGGGCATGGGCGTCGGCGTGGCAGGGAAAGCGCGGAGTCACCTAGTGCAG” as the sequence, how does the binding signal read?
**A.** The binding signal was 4770 fluorescence intensity (a.u.).

**Q.** “GGCGCTGGCAAGATGGAGGCGGAGGGTGGAGGGCGGAGGACGGAGTCACCTAGTGCAG” was tested. Which binding signal did it give?
**A.** Its binding signal is 3380 fluorescence intensity (a.u.).

**Q.** “GCCACATAGATGCCACGTTAACCAAAACCGCATTCCAAACCGGAGTCACCTAGTGCAG” was tested. Which binding signal did it give?
**A.** The binding signal was 6100 fluorescence intensity (a.u.).

**Q.** How did the binding signal turn out when “AATCTAAAATGGTTTTGATCCTACGTGGCATCCGTACGTACGGAGTCACCTAGTGCAG” was run?
**A.** The binding signal was 9560 fluorescence intensity (a.u.).

**Q.** “CGAGGCTGGCGTGGTGGCGTGCCGTGTACAGTGTGCTAGTCGGAGTCACCTAGTGCAG” was tested. Which binding signal did it give?
**A.** The binding signal was 3810 fluorescence intensity (a.u.).

**Q.** For “TCCCGGCGTGCTCGCGTGGCGGCGCCGCCGGAGCTGCTCACGGAGTCACCTAGTGCAG”, which binding signal is on record?
**A.** Its binding signal is 6590 fluorescence intensity (a.u.).

**Q.** How did the binding signal turn out when “TGGAAACGGTTTTAACTGGCATGACGACGTGGGACCCACACGGAGTCACCTAGTGCAG” was run?
**A.** The binding signal was 5420 fluorescence intensity (a.u.).

**Q.** “GGTCGCCGTTGCCGTTGCTGGTGGCCTCTCCCACTTAATGCGGAGTCACCTAGTGCAG” was tested. Which binding signal did it give?
**A.** The binding signal was 4450 fluorescence intensity (a.u.).

**Q.** How did the binding signal turn out when “CTTATATTCTGAGACAGAGTACTAGTTAGCTTTGTCTCTACGGAGTCACCTAGTGCAG” was run?
**A.** Its binding signal is 11900 fluorescence intensity (a.u.).

**Q.** Which binding signal does the source give for “TCAGATAGCCACCATGACATGTATCAGTACATGCAGTGATCGGAGTCACCTAGTGCAG” here?
**A.** Its binding signal is 4480 fluorescence intensity (a.u.).

**Q.** With “CCGTCGCTTGGCGATCGGACGGCGTGGATCCAATCCAACGCGGAGTCACCTAGTGCAG” as the sequence, how does the binding signal read?
**A.** Its binding signal is 4610 fluorescence intensity (a.u.).

**Q.** With “GGATAAGTGCCCCTACCAATAGGTGGACCCTTGTCACTGGCGGAGTCACCTAGTGCAG” as the sequence, how does the binding signal read?
**A.** The binding signal was 19300 fluorescence intensity (a.u.).

**Q.** “ATTGGATTTCCACGTCGACGGTACGTGTATGCCACGTAGGCGGAGTCACCTAGTGCAG” was tested. Which binding signal did it give?
**A.** The binding signal was 32900 fluorescence intensity (a.u.).

**Q.** For “CTCCCCGCGCCTCCCGGGGCAAAACTACCCCTCACCTTGGCGGAGTCACCTAGTGCAG”, which binding signal is on record?
**A.** The binding signal was 3280 fluorescence intensity (a.u.).

**Q.** “ACGGTGTTGCACTATATTATCACAGAATGTTTCACATATTCGGAGTCACCTAGTGCAG” was tested. Which binding signal did it give?
**A.** Its binding signal is 5730 fluorescence intensity (a.u.).

**Q.** How did the binding signal turn out when “GCGGGCGCACGGGTGGGTGGTGTTCTGGGGCGGAGGCAGCCGGAGTCACCTAGTGCAG” was run?
**A.** The binding signal was 3310 fluorescence intensity (a.u.).

**Q.** Which binding signal does the source give for “CTTCGGCGTCCATGGGCCCACCGTTATTGGGCCACGTTCGCGGAGTCACCTAGTGCAG” here?
**A.** The binding signal was 3450 fluorescence intensity (a.u.).

**Q.** “CCGCTTCGACTCCAACATCAAGCAGATGGCCGACAACGGCCGGAGTCACCTAGTGCAG” was tested. Which binding signal did it give?
**A.** Its binding signal is 17600 fluorescence intensity (a.u.).

**Q.** With “CATGGAGCTCTAAAGCCCGCCCACGCCATGCGCCGAGTAGCGGAGTCACCTAGTGCAG” as the sequence, how does the binding signal read?
**A.** Its binding signal is 3140 fluorescence intensity (a.u.).

**Q.** With “GATGGGCACTGGAAGCTGGAGGGGACGTGCTTGCCGCACTCGGAGTCACCTAGTGCAG” as the sequence, how does the binding signal read?
**A.** Its binding signal is 4190 fluorescence intensity (a.u.).

**Q.** For “TGGACCGGGGCCAAGCCAAATGGACGTGCCGTGGGCCGTGCGGAGTCACCTAGTGCAG”, which binding signal is on record?
**A.** Its binding signal is 3720 fluorescence intensity (a.u.).

**Q.** How did the binding signal turn out when “TCCAACCATTACTGCATCGCGTCAGCTCACGTGGACCCACCGGAGTCACCTAGTGCAG” was run?
**A.** Its binding signal is 13100 fluorescence intensity (a.u.).

**Q.** Which binding signal does the source give for “CTTATTGTTGGCTAATATGGTTTTACATATACAATAATAACGGAGTCACCTAGTGCAG” here?
**A.** The binding signal was 4780 fluorescence intensity (a.u.).

**Q.** With “AGGAAGACAACTATGATTTGGCAACTCGGTGGCGGTGGCGCGGAGTCACCTAGTGCAG” as the sequence, how does the binding signal read?
**A.** Its binding signal is 3460 fluorescence intensity (a.u.).

**Q.** For “GCTATCTCGCCGTACCGCCGTCGCCGCTTCCTCTCGCACGCGGAGTCACCTAGTGCAG”, which binding signal is on record?
**A.** The binding signal was 3900 fluorescence intensity (a.u.).

**Q.** For “CTGCTTGAGCAATATGGCTCAGCCAACTTCGTCAGCAAGGCGGAGTCACCTAGTGCAG”, which binding signal is on record?
**A.** Its binding signal is 3180 fluorescence intensity (a.u.).

**Q.** “GAGAGAGAGAGGAGATAATAAAATACTCGATATTGAATTGCGGAGTCACCTAGTGCAG” was tested. Which binding signal did it give?
**A.** The binding signal was 42500 fluorescence intensity (a.u.).

**Q.** “CGGCCCGTCAACGCGACACGTGTCCCGGTCGGTCGGGTGTCGGAGTCACCTAGTGCAG” was tested. Which binding signal did it give?
**A.** The binding signal was 19000 fluorescence intensity (a.u.).

**Q.** For “TATGCTCCTCTTTCAGGGTTATGGTATGACTGAGACTTGTCGGAGTCACCTAGTGCAG”, which binding signal is on record?
**A.** The binding signal was 3370 fluorescence intensity (a.u.).

**Q.** “GATAAGTCTATCGTGGGTCGTGGCCCATCGCACACCGGCACGGAGTCACCTAGTGCAG” was tested. Which binding signal did it give?
**A.** The binding signal was 3270 fluorescence intensity (a.u.).

**Q.** For “TTCTCCGGATCGCTTCTTCCACCTCGCGCGCACTTCACCTCGGAGTCACCTAGTGCAG”, which binding signal is on record?
**A.** Its binding signal is 3240 fluorescence intensity (a.u.).
